The target of the test is OTUD3 overexpressed in Farage cells (UniProt Q5T2D3). Nature of the test: affinity purification with mass spectrometry; immunoprecipitation from lysates of Farage cells overexpressing OTUD3 versus controls, then mass spectrometry.

Sequences of proteins named here, by UniProt entry; tags and fusion partners are left off.
UniProt Q5T2D3: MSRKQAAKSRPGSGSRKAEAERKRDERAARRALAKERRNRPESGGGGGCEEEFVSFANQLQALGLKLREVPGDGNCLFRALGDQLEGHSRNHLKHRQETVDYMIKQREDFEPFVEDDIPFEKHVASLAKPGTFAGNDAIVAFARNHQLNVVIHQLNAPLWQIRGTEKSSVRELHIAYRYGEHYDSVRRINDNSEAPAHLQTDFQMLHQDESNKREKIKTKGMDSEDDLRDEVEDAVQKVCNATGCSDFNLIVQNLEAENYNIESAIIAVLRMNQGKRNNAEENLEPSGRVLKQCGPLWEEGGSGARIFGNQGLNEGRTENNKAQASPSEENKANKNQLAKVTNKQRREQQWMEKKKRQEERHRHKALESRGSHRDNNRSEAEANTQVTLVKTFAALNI

Results are given in words; binding and its absence hold for the method and conditions named. In cells and extracts the contact can be indirect. A yes stands for co-enrichment or nearness to the bait. Other partners may have been found.

B1: MYL12A in Farage cells (protein, UniProt P19105 1-171)
chain: MSSKRTKTKTKKRPQRATSNVFAMFDQSQIQEFKEAFNMIDQNRDGFIDKEDLHDMLASLGKNPTDEYLDAMMNEAPGPINFTMFLTMFGEKLNGTDPEDVIRNAFACFDEEATGTIQEDYLRELLTTMGDRFTDEEVDELYREAPIDKKGNFNYIEFTRILKHGAKDKDD
Take B1: the binding entry is “binds”.

These data come from PMC11297949.
